Assay results reported in PubChem BioAssay AID2685 (National Center for Advancing Translational Sciences (NCATS), 2010).
The list shows a part of the results. These are further read-outs of the screen, such as a control signal, another cell line or another target. No call is given for them. The list favours compounds with an active or inconclusive main result. Potencies come from curve fits of mixed quality, noted in brackets.

Test: qHTS Assay for Lipid Storage Modulators in Drosophila S3 Cells;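 as to cell number change: cells counted by Cell Tracker Red CMTPX staining in the red channel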
Conditions: BODIPY lipid droplet fluorescence, 18-24 h; for cell number change: measured here: cell count max response, cells fed with added oleic acid
In short: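 Drosophila S3 cells got compounds at several concentrations plus oleic acid (400 uM solution). Laser-scanning cytometry with 488 nm excitation read lipid droplets at 500-530 nm and cells at 575-640 nm. Percent activity was relative to 20 uM Triacsin C.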

[1] = measured here: lipid fluorescence (Fed channel) AC50, cells fed with added oleic acid
[2] = measured here: cell number channel AC50, cells fed with added oleic acid

Structure (SMILES) | cell number change [%] | AC50 [1] | AC50 [2]
COc1ccc(S(N)(=O)=O)cc1C(=O)NCC1(N2CCCCC2)CCCCC1 | -27.4 | 1.84 µM [falling, full curve] | –
CC(C)=CC(=O)Nc1ccc(Br)cc1 | – | – | 4.61 µM [rising, partial curve, poor fit]
Cc1ccc(C(=O)NCC(=O)OCC(=O)c2ccc3c(c2)NC(=O)CO3)cc1 | 23.2 | – | –
CCC(C)NC(=O)c1c(F)c(F)c(F)c(F)c1F (stereo not drawn) | -37.7 | 25.9 µM [falling, partial curve] | 25.9 µM [falling, single point]
Fc1ccc(-c2cc3nc4c(c(N5CCOCC5)n3n2)CCCC4)cc1 | -14.7 | – | –
CC1(C)CC(=O)C(CCC(=O)c2ccccc2)C(C)(C)N1 (stereo not drawn) | -25 | 29.1 µM [falling, single point] | –
Cc1ncsc1CCOC(=O)c1ccc(Cl)cc1 | – | 7.31 µM [falling, partial curve] | –
O=C(CNS(=O)(=O)c1ccccc1)OCC(=O)c1cccc([N+](=O)[O-])c1 | -44.5 | 23.1 µM [falling, single point] | 29.1 µM [falling, single point]
S=c1cnc2ccccc2[nH]1 | 4.04 | – | 0.0651 µM [falling, full curve, poor fit]
Cc1oc(-c2ccccc2)nc1CS(=O)CC(=O)N1CCc2ccccc2C1 (stereo not drawn) | -6.46 | 4.61 µM [rising, partial curve] | –
CSc1nc(NCCCO)c2c3c(sc2n1)CN(C)CC3 | 19.2 | 5.8 µM [rising, partial curve, poor fit] | –
CCn1c(SCC(=O)N/N=C/C=C\c2ccccc2[N+](=O)[O-])nnc1-c1ccccc1 | -14.6 | 0.326 µM [falling, partial curve] | –
CN(/N=C/c1ccncc1)c1cnc2ccccc2n1 | 18.5 | – | 0.146 µM [rising, full curve, poor fit]
C=CCSc1nc2sc3c(c2c(=O)n1CC)CCC3 | -14 | 29.1 µM [falling, single point] | –
N/C(=N\NC(=O)c1ccc(F)cc1)c1cc2ccccc2oc1=O | 36.4 | 1.46 µM [rising, partial curve] | –
CC1=CC(C)(C)N(C(=O)CSc2nnc(-c3ccccc3)o2)c2ccc(C)cc21 | – | 0.366 µM [rising, partial curve, poor fit] | 0.411 µM [rising, full curve, poor fit]
Cc1ccc(S(=O)(=O)N2CCCOC2CNC(=O)C(=O)NCc2ccc3c(c2)OCO3)cc1 (stereo not drawn) | 32.4 | 14.6 µM [rising, partial curve] | 20.6 µM [rising, single point]
CCOc1ccc(C2CC(=O)n3nc(C45CC6CC(CC(C6)C4)C5)nc3S2)cc1OC (stereo not drawn) | 8.8 | – | –
Cn1nc(-c2ccccc2)cc1NC(=O)c1ccccc1 | -20.6 | 4.61 µM [falling, partial curve] | –
COc1ccc(CC(=O)OCC(=O)NCc2ccc(Cl)cc2)cc1 | 17.3 | 0.651 µM [falling, full curve, poor fit] | –
O=C(OCCN(C1=NS(=O)(=O)c2ccccc21)c1ccc(Cl)cc1)c1ccco1 | -1.75 | – | –
O=C(CNC(=O)c1cn2ccccc2n1)Nc1ccc(F)c(F)c1 | 44.5 | 9.2 µM [rising, partial curve] | 8.2 µM [rising, partial curve]
Cc1c(Cl)cccc1NC(=O)CNC(=O)CCS(=O)(=O)c1ccc(F)cc1 | -19.2 | – | –
O=C(O)C1CCN(C(=O)c2ccc(Cl)cc2)CC1 | -40.2 | 11.6 µM [falling, partial curve] | 0.82 µM [falling, full curve]
C=CCOC(=O)CCCC(=O)NC1CCCCC1 | -106 | – | 18.4 µM [falling, single point]
COc1cc(/C=N/n2nnnc2N)ccc1OC(C)C | 6.31 | – | –
COC(=O)C1=NN(C(C)=O)C2(CC(=O)N(c3cc(C)cc(C)c3)C2=O)C1 (stereo not drawn) | -2.01 | 29.1 µM [rising, single point] | –
CCOC(=O)[C@@H]1[C@H]2COc3ccc(Br)cc3[C@H]2N2C(=O)N(c3ccc(F)cc3)C(=O)[C@]12C | 51.5 | 10.3 µM [rising, partial curve] | 0.0731 µM [rising, full curve, poor fit]
CCOC(=O)c1cc2c(C)n(-c3ccc(OCC)cc3)c(C)c2ccc1=O | -12.3 | 0.58 µM [falling, full curve, poor fit] | –
O=C(CCN1C(=O)c2ccccc2S1(=O)=O)Nc1ccc(Cl)cc1 | -3.88 | – | 0.82 µM [rising, single point]

Individual results from the entries so far:
AC50 [2], CC(C)=CC(=O)Nc1ccc(Br)cc1 reads 4.61 µM [rising, partial curve, poor fit]
AC50 [1], CCn1c(SCC(=O)N/N=C/C=C\c2ccccc2[N+](=O)[O-])nnc1-c1ccccc1 reads 0.326 µM [falling, partial curve]
